B1: 1B12 (mouse hybridoma clone) (antibody, V domains shown)
VH: EVKLVESGGGLVQPGGFLKLSCATSGFTFSDYYMYWVRQTPEKRLEWVASISNGGDNTYYPDTVKGRFTISRDNAKNTLYLQMSRLKSEDTAMYYCARQGALYDGYYRGAMDYWGQGTSVTVSS
VL: QIVLTQSPAIMSASLGGRVTMTCTTSSSVPSSYFHWYQQKPGSSPKLWIYSTSNLASGVPARFSGSGSGTSYSLTISSMEAEDAATYYCHQYHRSPFTFGSGTKLEIK
B2: 10D11 (mouse hybridoma clone) (antibody, V domains shown)
VH: QVQLQQSGPELVRPGVAVKISCKGSGYKFIDYGMHWVKQSHTKSLQWIGVISPYSGKTNYSQKFKGKATMTVDKSSSTAYMELARLTSEDSAIYYCARGLSGNFVMDFWGQGTSVTVSS
VL: DIVLTQSPASLAVSLGQRATISCRASESVDSYGPSFMHWYQQKPGQPPKLLIYRASNLESGIPARFSGSGSRTDFTLTINPVEADDVATYYCQHSNEDPPTFGGGTRLEIK
B3: 8A2 (mouse hybridoma clone) (antibody, V domains shown)
VH: QVQLQQSGPELVRPGVSVKISCKGSGYTFTDYGMHWVKQSHAKSLEWIGVISPYSGRTNYNQNFKGKATMTVDKSSSTAYLELARLTSEDSAIYYCARGLSGNYVVDYWGQGTSVTVSS
VL: B2 VL with P34N, H94Q, D98G, R107K
B4: 7A4 (mouse hybridoma clone) (antibody, V domains shown)
VH: B3 VH with G33A, V50G, P53T, S55F, N63K, K67R, L81M, I93L, V106M
VL: B2 VL with S31D, P34N, H94Q, D98A, R107K, K111R
B5: 15D2 (mouse hybridoma clone) (antibody, V domains shown)
VH: B3 VH with F29V, G33A, P53F, R57K, N63K, K65M, L81M, V106M
VL: B2 VL with P34N, H94Q, D98G, R107K
B6: 7B10 (mouse hybridoma clone) (antibody, V domains shown)
VH: B3 VH with G33A, V50G, P53T, S55F, N63K, K67R, L81M, I93L, V106M
VL: B2 VL with S31D, P34N, H94Q, D98A, R107K, K111R
B7: 16F6 (mouse hybridoma clone) (antibody, V domains shown)
VH: DVQLQESGPGLVKPSQSLSLTCTVTGNSITSEYAWNWIRQFPGNKLEWMGYISYSGTTSYNPSLKSRISITRDTSKNQLFLQLNSVTTEDTATYFCARYGYGNPATRYFDVWGAGTTVTVSS
VL: DVQITQSPSYLTASPGETITINCRASKSISKYLAWYQEKPGKTNKLLIYSGSTLQSGIPSRFSGSGSGTDFTLTISNLEPEDFAMYYCQQHNEYPWTFGGGTKLEIK
B8: 16G5 (mouse hybridoma clone) (antibody, V domains shown)
VH: QVQLQQPGAELVRPGAAVKLSCKASGYTFTSYWMHWVKQRPGQGLEWIGEINPTNGRTNYNENFKSKATLTVDKSSSTAYMQLSSLTSEDSAVYYCARGTRAYHFWGQGTSVTVSS
VL: DIQLTQTPASLSVSVGETVTITCRASENIYSNLAWYQQKQGKSPQLLVYAATDLADGVPSRFRGSGSGTQYSLKINSLQSEDFGSYYCQHFWGTPLTFGAGTKLELI
B9: 7G7 (mouse hybridoma clone) (antibody, V domains shown)
VH: QVQLQQPGSELVRPGASVKLSCKASGYTFTSYWMHWVKQRHGQGLEWIGNIYPGSGSTKYDERFKSKGTLTVDTSSSTAYMHLSSLTSEDSAVYYCTRGGYDSRAWFAYWGQGTLVTVSA
VL: DIVLTQSPASLAVSLGQRATISCRARQSVSTSSYSFMHWYRQKAGQPPKLLIKYASIQESGVPARFSGSGSGTDFTLNILPVEEEDTATYYCQHTWEIPFTFGSGTKLEIK
B10: 4C2 (mouse hybridoma clone) (antibody, V domains shown)
VH: B9 VH with R63K, Y109H
VL: B9 VL with R41Q, A44P, K107N
B11: 13D4 (mouse hybridoma clone) (antibody, V domains shown)
VH: QVQLQQSGAELMKPGASVKISCKAAGYTFSNYWIEWVKQRPGHGLEWIGEILPGSGSTKYNEKFKGKATFTADTSSNTAYMQLSSLTSEDSAVYYCARRGGYGYDGEFAYWGQGTLVTVSA
VL: DIQMTQTTSSLSASLGDRVTINCRAGQDITNYLNWFQQKPDGTVKLLIYYTSRLHSGVPSRFSGSGSGTDYSLTITNLEQEDIATYFCQQANTLPYTFGGGTKLEIK
B12: 7A4 HC/8A2 LC (antibody, V domains shown)
VH: B3 VH with G33A, V50G, P53T, S55F, N63K, K67R, L81M, I93L, V106M
VL: B2 VL with P34N, H94Q, D98G, R107K

Where a chain is given by its changes, count along the chain named. Results are given in words; binding and its absence hold for the method and conditions named. Some binding calls cover weakened binding; strength is not graded here.

The target of the first test is Full length cyno TfR on 293 cells (cynomolgus monkey). Kind of test: FACS, transfected 293 cells, 1 uM human holo-Tf present. (In general: In flow cytometry, cells or beads pass a laser one at a time.)
Regarding B1, the binding entry is recorded as “binds”.
On to B2, for which the binding result was “binds”.
As for B3, the binding result is given as “binds”.
The same measure, in the same setting: the entry for B4 is “binds”; for B5 it is “binds”; for B6 it is “binds”.
Still for that read-out and setting: the entry for B7 is “binds”; for B8 it is “binds”; for B9 it is “binds”.
Still for that read-out and setting: the same measure for B10: “binds”; for B11: “binds”.

The target in the next test is Full length human TfR on cells (human) (UniProt P02786). Described as above.
With B2, the binding result was “binds”.
Same read-out and setting: the entry for B4 is “binds”; for B6 it is “binds”.

In a further test the target is Full length cyno TfR on 293 cells (cynomolgus monkey). Nature of the test: FACS, cyTfR-transfected 293 cells, hybridoma supernatant, 1 uM holo-Tf present.
For the molecule B1, the binding result is listed as “binds”.
Take B2: the binding result is on record as “binds”.
Same read-out and setting: the same measure for B3: “binds”.
Regarding B4, the binding entry is listed as “binds”.
Still for that read-out and setting: the entry for B5 is “binds”.
B6: the binding result is given as “binds”.
For the molecule B7, the binding result is “binds”.
Still for that read-out and setting: the entry for B8 is “binds”; for B9 it is “binds”; for B10 it is “binds”.
Same read-out and setting: the entry for B11 is “binds”.

For the next test, the target named is Full length human TfR on cells (human) (UniProt P02786). Nature of the test: FACS, huTfR-transfected 293 cells, hybridoma supernatant, 1 uM holo-Tf present.
On to B2, for which the binding result is “binds”.
Turning to B4, the binding entry was “binds”.
The same measure, in the same setting: the same measure for B6: “binds”.

In another test the target is Cyno TfR extracellular domain (construct analogous to the human His-tagged ecd) (cynomolgus monkey). Nature of the test: ELISA on cyno TfR. For orientation: In an ELISA, binding on a coated surface is turned into a signal by an enzyme label.
On to B1, for which the binding entry was “binds”.
For B2, the binding result was “binds”.
The same measure, in the same setting: the entry for B12 is “binds”; for B3 it is “binds”.
With B4, the binding entry was “binds”.
On the same count and under the same terms, the same measure for B5: “binds”; for B6: “binds”.
B7: the binding result is reported as “binds”.
As to B8, the binding entry is listed as “binds”.
Consider B9, for which the binding entry was “binds”.
Same read-out and setting: the same measure for B10: “binds”.
Take B11: the binding entry is recorded as “binds”.

The target in the next test is Human TfR extracellular domain containing an N-terminal His tag (human) (UniProt P02786). Nature of the test: ELISA on huTfR.
Consider B2, for which the binding result is reported as “binds”.
Same read-out and setting: the entry for B4 is “binds”; for B6 it is “binds”.

Values taken from US20200123267A1 (Genentech, published 2020).
